Experimental data from patent US20220259298A1 (KYOTO UNIVERSITY, published 2022).
These are yes or no findings as the source states them, for the method shown. In cells and extracts the contact can be indirect. Some binding calls cover weakened binding; strength is not graded here.

Sequences of proteins named here, by UniProt entry; tags and fusion partners are left off. Residues count along the entry.
UniProt Q6X4U4, residues 24-206: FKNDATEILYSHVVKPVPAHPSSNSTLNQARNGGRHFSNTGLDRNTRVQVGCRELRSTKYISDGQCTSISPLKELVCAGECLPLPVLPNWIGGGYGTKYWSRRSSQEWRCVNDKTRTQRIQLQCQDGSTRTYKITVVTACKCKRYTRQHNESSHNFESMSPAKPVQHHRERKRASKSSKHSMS

Tests used:
[1] = target: N-terminal PA-tagged human USAG-1 (WISE) recombinant protein (human) (UniProt Q6X4U4); assay: pull-down: antibody on Protein A sepharose, Expi293F supernatant with PA-tagged USAG-1, SDS-PAGE
[2] = target: N-terminal PA-tagged human USAG-1 (WISE) recombinant protein (human) (UniProt Q6X4U4); assay: pull-down: antibody on Protein A sepharose, Expi293F supernatant with PA-tagged USAG-1, SDS-PAGE and CBB staining

Binder | binding [1] | binding [2]
mouse anti-USAG-1 neutralizing antibody A (E37) (antibody, mouse IgG1, kappa, V domains shown) VH: QVQLQQSDAELVNPGASVKISCKVSGYTFTDHTIHWMKQRPEQGLEWIGYIYPGDGSTKYNEKFKGKATLTADKSSSTAYMQLNSLTSEDSAVYFCARTETYYGRIYYYAMDYWGQGTSVTVSS VL: QIVLSQSPAILSASPGEKVTMTCRASSSVSYMYWYQQKPGSSPKPWIYATSNLASGVPIRFSGSGSGTSYSLTISRVEAEDAATYYCQQWSSNLTFGAGTKLELKR | binds | 
mouse anti-USAG-1 neutralizing antibody B (E57) (antibody, mouse IgG1, kappa, V domains shown) VH: EVQLQQSGPELVKPGASVKISCKTSGYSFTGYYMSWVKQSPEKSLEWIGEINPTTGGSTYNQKFKAKATLTVDKSSSTAYMQLKSLTSEDSAVYYCAREGYYSGISYDAMDYWGQGTSVTVSS VL: DIQMTQTTSSLSASLGDRVTISCRASQDISNYLSWYQQKPDGTVKLLIYYTSRLHSGVPSRFSGSGSGTDYSLTISNLEQEDIATYFCQQGNTLPRTFGGGTKLEIKR | binds | 
mouse anti-USAG-1 neutralizing antibody C (B14) (antibody, V domains shown, Raised against baculovirus-derived rat USAG-1) VH: EVQLQQSGPELVKPGASVKISCKASGYSFTGYYMNWVKQSPEKSLEWIGEINPTTGGTTYNQKFKAKATLTVDKSSSTAYMQLKSLTSEDSAVYYCARLHYDYDGVGYAMDYWGQGTSVTVSS VL: DIVMTQSHKFMSTSVGDRVSITCKASQDVSTAVAWYQQKPGQSPKLLIYSASYRYTGVPARFTGSGSGTDFTFTISSVQAEDLAVYYCQQHYSTPPTFGGGTKLEIKR |  | binds
mouse anti-USAG-1 neutralizing antibody E (B103) (antibody, mouse IgG1, kappa, V domains shown, Raised against baculovirus-derived rat USAG-1) VH: DVQLQESGPGLVKPSQSLSLTCSVTGYSITSGYYWNWIRQFPGNKLEWMGCISYDGSNNYNPSLKNRISITRDTSKNQFFLKLNSVTTEDTATYYCARGGLLWGQGTTLTVSS VL: DIQMTQSPSSLSASLGERVSLTCRASQEISGYLSWLQQKPDGNIKRLIYAASTLDSGVPKRFSGSRSGSDYSLTISRLESEDFADYYCLQYASYPWTFGGGTKLEIKR |  | binds
